In the supplement of paper PMC12462457:
Where a name gives a salt, the structure may show the parent alone. ± gives the standard deviation of the averaged measurements. The list shows a part of the results. This data set is noisy: repeats of one test often differ as much as different tests do.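 Imaging of DAPI-stained nuclei was used to count cells; those without phalloidin-stained cytoplasm were treated as dead and excluded. Every well's count was divided by the median of same-plate vehicle wells, then averaged across two replicate plates.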

System: OVCAR8
Test: cell count relative to DMSO vehicle (fold change); higher = more surviving senescent cells (less killing)
Conditions: senescence inducer: cisplatin 10 µM 48 h, then 6 d recovery (CP senescent), exposure time 24 h

SMILES | cell count (compound dose 1 µM) | cell count (compound dose 5 µM)
COC(=O)[C@H](CCSC)NC(=O)c1ccc(NC[C@@H](N)CS)cc1-c1ccccc1 [FTI-277 (hydrochloride)] | 1.18 ± 0.077 | 0.841 ± 0.5
O=C1CCC(N2Cc3c(C#CCCCNC(=O)c4ccc(NC(=O)[C@@H]5NC6(CCCCC6)[C@@]6(C(=O)Nc7cc(Cl)ccc76)[C@H]5c5cccc(Cl)c5F)cc4)cccc3C2=O)C(=O)N1 (some centres undefined) | 1.01 ± 0.064 | 0.936 ± 0.0057
C[C@H]1Oc2cc(cnc2N)-c2c(nn(C)c2C#N)CN(C)C(=O)c2ccc(F)cc21 [Lorlatinib] | 1.06 ± 0.21 | 0.777 ± 0.57
O=C1NC(=O)[C@@H](c2cn3c4c(cccc24)CCC3)[C@@H]1c1c[nH]c2ccccc12 [Tivantinib] | 0.832 ± 0.086 | 0.551 ± 0.032
CCc1cnn2c(NCc3ccc[n+]([O-])c3)cc(N3CCCC[C@H]3CCO)nc12 [Dinaciclib] | 0.706 ± 0.038 | 0.612 ± 0.095
COc1ccc(-c2cc(=O)c3c(OC)c(OC)c(OC)cc3o2)cc1OC [Sinensetin] | 1.08 ± 0.061 | 1.2 ± 0.057
CC(C(=O)Nc1cccc(/N=C/c2c(O)ccc3ccccc23)c1)c1ccccc1 (centres undefined) [Salermide] | 1.14 ± 0.12 | 1.12 ± 0.13
COc1nc(N)nc2c1ncn2[C@@H]1O[C@H](CO)[C@@H](O)[C@@H]1O [Nelarabine] | 1.06 ± 0.081 | 1.09 ± 0.022
COc1cccc(-c2cc(F)ccc2[C@H]2Cc3nc(N)nc(C)c3C(=O)N2)n1 | 0.455 ± 0.026 | 0.419 ± 0.093
O=C(Nc1cccc(Nc2ncc(Br)c(NCCc3cnc[nH]3)n2)c1)N1CCCC1 | 1.19 ± 0.06 | 0.896 ± 0.21
Cn1cnc([N+](=O)[O-])c1Sc1ncnc2[nH]cnc12 [Azathioprine] | 1.254 ± 0.011 | 0.835 ± 0.077
S=C(NCc1ccc2c(c1)OCO2)N1CCN(c2ncnc3c2oc2ccccc23)CC1 [Amuvatinib (MP-470)] | 0.959 ± 0.076 | 0.603 ± 0.26
COc1ccc(/C=C/C(=O)c2ccc(OC)c3c2OC(C)(C)C=C3)cc1 [Millepachine] | 1.05 ± 0.093 | 0.847 ± 0.1
CN1C(=O)N[C@@H](Cc2c[nH]c3c(Cl)cccc23)C1=O [Necrostatin 2 (S enantiomer)] | 0.822 ± 0.044 | 0.976 ± 0.09
CC1(C)CCC2=C(O1)c1ccccc1C(=O)C2=O [beta-LAPACHONE] | 0.8645 ± 0.0035 | 0.926 ± 0.22
Cn1c(Nc2ccc(C(F)(F)F)cc2)nc2cc(Oc3ccnc(-c4ncc(C(F)(F)F)[nH]4)c3)ccc21 | 1.13 ± 0.13 | 1.29 ± 0.052
CCOC(=O)[C@@]1(CCCCCCOc2ccc(Cl)cc2)CO1 [Etomoxir] | 1.509 ± 0.0085 | 1.35 ± 0.057
CCOC(=O)[C@@]1(CCCCCCOc2ccc(Cl)cc2)CO1 [Etomoxir (sodium salt)] | 1.11 ± 0.058 | 0.962 ± 0.03
Cc1cc(O)c(-c2ccc([C@@H](C)CN(C)C)cc2)c2c1[nH]c(=O)c1sccc12 [OTS964 (hydrochloride)] | 0.464 ± 0.037 | 0.564 ± 0.02
C[C@H](CCC(=O)O)[C@H]1CC[C@H]2[C@@H]3CC[C@@H]4C[C@H](O)CC[C@]4(C)[C@H]3CC[C@]12C [Lithocholic acid] | 1 ± 0.082 | 1.09 ± 0.047
CCOc1cc(C(C)(C)C)ccc1C1=N[C@@](C)(c2ccc(Cl)cc2)[C@@](C)(c2ccc(Cl)cc2)N1C(=O)N1CCN(CCCS(C)(=O)=O)CC1 | 1.18 ± 0.17 | 0.821 ± 0.043

SMILES | cell count (compound dose 1 µM) | cell count (compound dose 5 µM)
CN(C)CCCN1c2ccccc2CCc2ccccc21 | 0.889 ± 0.16 | 0.741 ± 0.1
COc1ccc(/C=C/C(=O)c2c(-c3ccccc3)c3ccccc3[nH]c2=O)cc1 [Ceranib-2] | 0.711 ± 0.051 | 0.808 ± 0.011
CC1(C)CC[C@]2(C(=O)n3cnc(-c4cccnc4)c3)CC[C@]3(C)[C@H](C(=O)C=C4[C@@]5(C)C=C(C#N)C(=O)C(C)(C)[C@@H]5CC[C@]43C)[C@@H]2C1 | 0.216 ± 0.04 | 0.0195 ± 0.011
Clc1ccc(Nc2nnc(Cc3ccncc3)c3ccccc23)cc1 [Vatalanib (PTK787) 2HCl] | 0.908 ± 0.12 | 0.776 ± 0.028
C/C=C1\[C@H]2C=C(C)C[C@]1(N)c1ccc(=O)[nH]c1C2 [(-)-Huperzine A] | 0.608 ± 0.076 | 0.448 ± 0.087
CCOC(=O)[C@H](CCc1ccccc1)N[C@@H](C)C(=O)N1Cc2cc(OC)c(OC)cc2C[C@H]1C(=O)O [Moexipril (hydrochloride)] | 0.842 ± 0.072 | 0.439 ± 0.073
COc1cc(/C=C/C(=O)CC(=O)/C=C/c2ccc(O)c(OC)c2)ccc1O | 0.727 ± 0.27 | 0.57 ± 0.1
O=C1C(SCCO)=C(SCCO)C(=O)c2ccccc21 | 1.13 ± 0.052 | 0.0775 ± 0.052
COC(=O)CC(NC(=O)OC(C)(C)C)C(=O)CF (centres undefined) | 0.729 ± 0.03 | 0.473 ± 0.18
CC/C(=C(\c1ccccc1)c1ccc(OCCN(C)C)cc1)c1ccccc1 [Tamoxifen (Citrate)] | 0.961 ± 0.12 | 0.55 ± 0.071
CCc1oc2ccccc2c1C(=O)c1cc(Br)c(O)c(Br)c1 | 1.12 ± 0.077 | 1.21 ± 0.2
Cn1cc(-c2ccc(S(=O)(=O)n3ccc(/C=C/C(=O)Nc4ccccc4N)c3)cc2)cn1 | 1.08 ± 0.13 | 0.871 ± 0.056
CC(C)c1cccc(C(C)C)c1NC(=O)NCC1(c2ccc(N(C)C)cc2)CCCC1 [Nevanimibe hydrochloride] | 0.991 ± 0.12 | 1.03 ± 0.11
CCN(CCCOc1ccc2c(Nc3cc(CC(=O)Nc4cccc(F)c4)[nH]n3)ncnc2c1)CCOP(=O)(O)O [Barasertib (AZD1152-HQPA)] | 1.23 ± 0.2 | 1.16 ± 0.061
CCN(CCCOc1ccc2c(Nc3cc(CC(=O)Nc4cccc(F)c4)[nH]n3)ncnc2c1)CCOP(=O)(O)O [Barasertib] | 1.3 ± 0.33 | 0.98 ± 0.2
CN(C)CCCCC(=O)Nc1ccc(NC(=S)NC(=O)c2ccc(C(C)(C)C)cc2)cc1 [Tenovin-6] | 0.991 ± 0.029 | 0.871 ± 0.063
COc1cc2ncnc(Nc3ccc(F)c(Cl)c3)c2cc1OCCCN1CCOCC1 [Gefitinib (ZD1839)] | 0.809 ± 0.089 | 0.5485 ± 0.005
CN[C@@H](C)C(=O)N[C@H](C(=O)N1CCC[C@H]1C(=O)Nc1sc(-c2ncco2)nc1-c1ccccc1)C1CCCCC1 | 0.37 ± 0.083 | 0.144 ± 0.054
COC(=O)[C@]12CCC(C)(C)C[C@H]1[C@H]1C(=O)C=C3[C@@]4(C)C=C(C#N)C(=O)C(C)(C)[C@@H]4CC[C@@]3(C)[C@]1(C)CC2 [Bardoxolone methyl] | 0.0875 ± 0.019 | 0.0245 ± 0.0078
CC(C)Cc1ccc(C(C)C(=O)O)cc1 (centres undefined) | 0.877 ± 0.054 | 0.481 ± 0.37
CN(C(=O)c1c(O)c2ccccc2n(C)c1=O)c1ccccc1 [Roquinimex] | 1.09 ± 0.18 | 0.761 ± 0.17

Quoted from the listing:
Value for CCN(CCCOc1ccc2c(Nc3cc(CC(=O)Nc4cccc(F)c4)[nH]n3)ncnc2c1)CCOP(=O)(O)O [Barasertib (AZD1152-HQPA)] under cell count (compound dose 5 µM): 1.16 ± 0.061
Value for COC(=O)[C@]12CCC(C)(C)C[C@H]1[C@H]1C(=O)C=C3[C@@]4(C)C=C(C#N)C(=O)C(C)(C)[C@@H]4CC[C@@]3(C)[C@]1(C)CC2 [Bardoxolone methyl] under cell count (compound dose 5 µM): 0.0245 ± 0.0078
Value for COc1ccc(/C=C/C(=O)c2c(-c3ccccc3)c3ccccc3[nH]c2=O)cc1 [Ceranib-2] under cell count (compound dose 1 µM): 0.711 ± 0.051
